Data as given in PubChem BioAssay AID1224830 (NIAID, 2016).
Purpose: 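Genes whose knock-down alters the TNF-alpha reporter response to LPS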 (primary screen). System: human THP-1 monocytic leukaemia cells, TNF dual-luciferase reporter clone, PMA-differentiated to macrophage-like cells. Knock-down reagent: siRNA pool against human genes, 50 nM. Time to read-out: LPS for 4 h, given about 3 days after siRNA transfection. Treatment: bacterial LPS (TLR4 ligand), 10 ng/ml. Measured: 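TNF firefly reporter luminescence divided by renilla, normalised to the plate median, then turned into a robust z-score for each replicate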. Reading the numbers: TNF reporter robust z-score: higher = stronger TNF reporter response to LPS. Call rule: 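a well is active when its z-score exceeds 2.8 or falls below -1.5; control wells carry no call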.
Here is a random part of about 18,000 reagents tested. About 2,900 of them (16%) count as active. 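Calls are made per well; low scores hint the gene aids the LPS response, high scores that it dampens it.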 Entries without a mark were called inactive. Repeated entries: four replicate wells of each siRNA pool.

FZD1 → TNF reporter robust z-score: 1.12
FZD1 → TNF reporter robust z-score: 0.89
FZD1 → TNF reporter robust z-score: 0.15
FZD1 → TNF reporter robust z-score: 0.84
FZR1 → TNF reporter robust z-score: -0.25
FZR1 → TNF reporter robust z-score: 0.49
FZR1 → TNF reporter robust z-score: 0.87
FZR1 → TNF reporter robust z-score: 2.59
KRIT1 → TNF reporter robust z-score: 1.16
KRIT1 → TNF reporter robust z-score: 4.53 (active)
KRIT1 → TNF reporter robust z-score: -0.27
KRIT1 → TNF reporter robust z-score: 0.91
RRAD → TNF reporter robust z-score: -1.51 (active)
RRAD → TNF reporter robust z-score: -1.31
RRAD → TNF reporter robust z-score: -0.5
RRAD → TNF reporter robust z-score: -0.38
KCTD15 → TNF reporter robust z-score: -0.31
KCTD15 → TNF reporter robust z-score: -0.4
KCTD15 → TNF reporter robust z-score: 0.22
KCTD15 → TNF reporter robust z-score: -0.73
ZFC3H1 → TNF reporter robust z-score: -0.57
ZFC3H1 → TNF reporter robust z-score: -0.96
ZFC3H1 → TNF reporter robust z-score: -1.23
ZFC3H1 → TNF reporter robust z-score: -1.43
SHISA2 → TNF reporter robust z-score: 1.45
SHISA2 → TNF reporter robust z-score: 1.94
SHISA2 → TNF reporter robust z-score: 1.4
SHISA2 → TNF reporter robust z-score: -0.33
HMGB1P1 → TNF reporter robust z-score: 2.5
HMGB1P1 → TNF reporter robust z-score: 4.02 (active)
HMGB1P1 → TNF reporter robust z-score: 0.9
HMGB1P1 → TNF reporter robust z-score: 4.6 (active)
ALDH2 → TNF reporter robust z-score: -2.55 (active)
ALDH2 → TNF reporter robust z-score: -0.71
ALDH2 → TNF reporter robust z-score: -0.69
ALDH2 → TNF reporter robust z-score: -0.17
CLDND1 → TNF reporter robust z-score: 1.89
CLDND1 → TNF reporter robust z-score: 2.03
CLDND1 → TNF reporter robust z-score: 2.25
CLDND1 → TNF reporter robust z-score: 4.97 (active)
CCDC71 → TNF reporter robust z-score: 0.22
CCDC71 → TNF reporter robust z-score: 2.34
CCDC71 → TNF reporter robust z-score: 1.24
CCDC71 → TNF reporter robust z-score: 3.18 (active)
S100G → TNF reporter robust z-score: -0.15
S100G → TNF reporter robust z-score: -0.6
S100G → TNF reporter robust z-score: 0.2
S100G → TNF reporter robust z-score: -0.24
AKT1 → TNF reporter robust z-score: 0.81
AKT1 → TNF reporter robust z-score: 0.6
AKT1 → TNF reporter robust z-score: -0.09
AKT1 → TNF reporter robust z-score: 0.4
NKX2-1 → TNF reporter robust z-score: -1.13
NKX2-1 → TNF reporter robust z-score: -1.01
NKX2-1 → TNF reporter robust z-score: -1.6 (active)
NKX2-1 → TNF reporter robust z-score: -1
ATP11C → TNF reporter robust z-score: 1.13
ATP11C → TNF reporter robust z-score: 3.64 (active)
ATP11C → TNF reporter robust z-score: -0.01
ATP11C → TNF reporter robust z-score: 3.6 (active)

Active calls (from the list above):
KRIT1 → TNF reporter robust z-score: 4.53 (active)
RRAD → TNF reporter robust z-score: -1.51 (active)
HMGB1P1 → TNF reporter robust z-score: 4.02 (active)
HMGB1P1 → TNF reporter robust z-score: 4.6 (active)
ALDH2 → TNF reporter robust z-score: -2.55 (active)
CLDND1 → TNF reporter robust z-score: 4.97 (active)
CCDC71 → TNF reporter robust z-score: 3.18 (active)
NKX2-1 → TNF reporter robust z-score: -1.6 (active)
ATP11C → TNF reporter robust z-score: 3.64 (active)
ATP11C → TNF reporter robust z-score: 3.6 (active)
